Laboratory results published in patent US20240402193A1.
These are yes or no findings as the source states them, for the method shown. Some results given as binding are weak or reduced against the parent protein; the word gives no strength.

Amino acid sequences for entries named in this document (tags omitted). A change or cut given only in a name is not applied to a line headed by its entry.
UniProt P10636: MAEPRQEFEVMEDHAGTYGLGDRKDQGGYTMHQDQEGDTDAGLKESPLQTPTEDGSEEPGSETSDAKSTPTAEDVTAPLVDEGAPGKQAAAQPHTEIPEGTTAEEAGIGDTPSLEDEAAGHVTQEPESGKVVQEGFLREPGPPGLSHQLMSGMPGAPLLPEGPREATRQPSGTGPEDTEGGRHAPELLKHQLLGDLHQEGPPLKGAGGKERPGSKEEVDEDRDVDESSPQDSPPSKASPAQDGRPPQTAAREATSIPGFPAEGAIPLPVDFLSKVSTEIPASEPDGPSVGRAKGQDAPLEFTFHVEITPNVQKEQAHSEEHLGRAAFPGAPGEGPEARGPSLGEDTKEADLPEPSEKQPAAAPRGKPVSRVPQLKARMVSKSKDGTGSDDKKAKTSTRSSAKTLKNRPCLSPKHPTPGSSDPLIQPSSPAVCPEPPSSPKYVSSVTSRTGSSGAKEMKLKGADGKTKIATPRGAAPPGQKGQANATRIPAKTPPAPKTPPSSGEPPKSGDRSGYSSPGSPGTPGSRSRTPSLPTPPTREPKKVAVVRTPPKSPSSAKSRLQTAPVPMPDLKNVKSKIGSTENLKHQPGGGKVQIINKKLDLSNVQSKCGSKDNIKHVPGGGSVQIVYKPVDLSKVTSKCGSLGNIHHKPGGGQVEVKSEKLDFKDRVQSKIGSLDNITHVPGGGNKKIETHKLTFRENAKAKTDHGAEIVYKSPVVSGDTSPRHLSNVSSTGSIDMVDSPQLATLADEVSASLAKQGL

Molecular target: purified recombinant tau protein (positive control) (human) (UniProt P10636)
Test: sandwich lateral flow immunoassay, AB 6-18 immobilised on the test line, AB 157-168 on 150 nm gold nano-shells (FIG. 8A)

B1: anti-tau antibody that binds to epitope 6-18 (AB 6-18) (antibody, mouse IgG1, kappa, V domains shown)
VH: EVQLVESGEDLVKPGGSLKLSCVASGFAFSSYGMSWVRQTPDMRLEWVATISSSGSRTYFPDSVKGRLTISRDNDKNILYLQMSSLRSEDTAMYYCTITWDGAMDYWGRGISVTVSS
VL: DVLMTQTPLSLAVNLGDQASLSCRSSQTILHSNGNTYLEWYLQKPGQSPRLLIYKVSKRFSGVPDRFSGSGSGTDFTLKISRVEADDLGIYYCFQGSLVPWAFGGGTKLEIKR
binding: binds
